PMC6854577, “Quantitation of Thyroid Hormone Binding to Anti-Thyroxine Antibody Fab Fragment by Native Mass Spectrometry” (ACS Omega, 2019)

Test system: anti-T4 antibody Fab fragment
Test: Native MS initial ligand screening (approximate affinities, stoichiometry)
Type: binding, mouse
Conditions: 0.1 μM Fab, four to six ligand concentrations
Procedure: All mass spectrometric experiments were performed by using a 12-T Bruker solariX XR Fourier transform ion cyclotron resonance (FT-ICR) instrument (Bruker Daltonics, Bremen, Germany) equipped with an electrospray ionization (ESI) source (Apollo-II). Mass spectra were obtained in a positive ion mode, and the samples were directly infused to the ion source at a flow rate of 2 μL min^–1. Dry nitrogen was used as nebulizing (4.0 L min^–1) and drying (80 °C, 1.0 bar) gas. The ions were accumulated in the hexapole ion trap for 3.5 s and then transferred to the dynamically harmonized ICR cell (Paracell) for trapping, excitation, and detection. The time of flight was set to 3.5 ms. All other instrumental parameters were carefully adjusted to preserve noncovalent interactions in the gas phase. […] The mass spectra were externally calibrated by the ESI Tuning mix (part no. G2431A; Agilent Technologies, Santa Clara, CA). The mass spectra were acquired from m/z 1500 to 5000. The data acquisition was attained by ftmsControl 2.1 software and further processed and analyzed by DataAnalysis 4.2 SR1 software. All native MS experiments were performed in 20 mM aqueous ammonium acetate (pH 6.9) solution.
First, the approximate binding affinities of thyroid hormones and tetrahalogen bisphenols to anti-T4 Fab were determined via initial screening experiments (Figures S1–S7).

| Compound | binding stoichiometry |
| --- | --- |
| N[C@@H](Cc1ccc(Oc2ccc(O)cc2)cc1)C(=O)O [T0, L-thyronine] | binding of the second ligand at the highest ligand concentrations was observed |
| N[C@@H](Cc1ccc(Oc2ccc(O)c(I)c2)c(I)c1)C(=O)O [T2, 3,3′-diiodo-L-thyronine] | only 1:1 binding |
| N[C@@H](Cc1cc(I)c(Oc2ccc(O)c(I)c2)c(I)c1)C(=O)O [T3, 3,3′,5-triiodo-L-thyronine] | only 1:1 binding |
| N[C@@H](Cc1cc(I)c(Oc2cc(I)c(O)c(I)c2)c(I)c1)C(=O)O [T4, L-thyroxine] | only 1:1 binding |
| CC(C)(c1cc(Br)c(O)c(Br)c1)c1cc(Br)c(O)c(Br)c1 [TBB, tetrabromobisphenol-A] | only 1:1 binding |
| CC(C)(c1cc(Cl)c(O)c(Cl)c1)c1cc(Cl)c(O)c(Cl)c1 [TCB, tetrachlorobisphenol-A] | binding of the second ligand at the highest ligand concentrations was observed |
| CC(C)(c1cc(I)c(O)c(I)c1)c1cc(I)c(O)c(I)c1 [TIB, tetraiodobisphenol-A] | only 1:1 binding |
